Among the data in PubChem BioAssay AID2685 (National Center for Advancing Translational Sciences (NCATS), 2010) are cell number change and AC50 values, retold here.

This experiment can be described thus: qHTS Assay for Lipid Storage Modulators in Drosophila S3 Cells.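 On cell number change: cells counted by Cell Tracker Red CMTPX staining in the red channel.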 The note with it: BODIPY lipid droplet fluorescence, 18-24 h; for cell number change: measured here: cell count max response, cells fed with added oleic acid. Put shortly:
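Drosophila S3 cells loaded with oleic acid (400 uM, as added) and compounds at several concentrations; lipid droplets imaged by 488-nm laser-scanning cytometry, 500–530 nm intensity and object ratio to cell channel. Percent activity normalized to 20 uM Triacsin C.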
On the technique in general: qHTS replaces the single test concentration by a dilution series.

Where [1] appears, read: measured here: lipid fluorescence (Fed channel) AC50, cells fed with added oleic acid.
The mark [2] stands for this setting: measured here: cell number channel AC50, cells fed with added oleic acid.

The other results are listed elsewhere or left out. The main result of the screen is listed elsewhere. These columns were measured beside it and carry no call. Most of these compounds were active or inconclusive in the main read-out, so they are no random draw. Words in brackets tell the shape of the fitted curve; partial curves, single points and poor fits give uncertain potencies.

In the case of `O=[N+]([O-])c1ccc(N2CCN(Cc3ccccc3)CC2)s1`, the cell number change is 0.692%. Besides, the half-maximal activity concentration (AC50) under setting [1] is 0.13 µM [falling, full curve, poor fit].

In the case of `COc1ccc(C(=O)Nc2cccc(/C(C)=N/NC(=O)c3ccc([N+](=O)[O-])c(C)c3)c2)cc1OC`, the cell number change was 30.3%. Under setting [2], the half-maximal activity concentration (AC50) is 3.26 µM [rising, full curve, poor fit].

For the compound `COc1ccc(/C=N/OCc2nc3c4c(ncn3n2)Oc2ccc3ccccc3c2C4c2ccccc2)cc1` (stereo not given), the cell number change came out at 140%. Also, the AC50 under setting [1] is 6.51 µM [falling, single point].

For `CCCCC(=O)N1C/C=C\C(c2ccc(OC)cc2)N(Cc2ccc(F)cc2)C(=O)[C@H]1Cc1ccccc1` (stereo not given in full), the cell number change is -46.2%. For the same compound, the AC50 under setting [2] is 29.1 µM [falling, single point]. Besides, the AC50 under setting [1] was 29.1 µM [falling, single point].

As for `CC(C)CN1CCN(Cc2cccn2-c2cccnc2)CC1CCO` (stereo not given), the cell number change came out at 14.8%. Further, under setting [1], the AC50 is 29.1 µM [rising, single point].

`CSc1ccc(NC(=O)NCc2cccnc2)cc1`: the cell number change is -4.17%. The AC50 under setting [1] was 0.103 µM [falling, full curve, poor fit].

Regarding `COc1cc([N+](=O)[O-])ccc1NC(=O)NNC(=O)CCc1ccccc1`, the cell number change is 7.43%.

`CN(C1CCCCC1)S(=O)(=O)c1ccc(S(=O)(=O)N2CCN(C(=O)c3ccccc3F)CC2)cc1`: the AC50 under setting [2] was 6.51 µM [rising, single point] and the AC50 under setting [1] is 6.51 µM [rising, single point].

`CC(C)c1ccccc1NC(=O)COC(=O)c1ccc(Cl)c(S(=O)(=O)N2CCCCCC2)c1`: the cell number change was -8.95%. Further, the half-maximal activity concentration (AC50) under setting [1] was 14.6 µM [falling, partial curve, poor fit].

Regarding `CC1CC(C)CN(c2oc(-c3ccccc3Cl)nc2C#N)C1` (stereo not given), the cell number change turned out to be 10.5%. The AC50 under setting [1] was 6.51 µM [rising, single point].

As to `CCOC(=O)[C@@H]1[C@H]2COc3ccccc3[C@H]2N2C(=O)N(c3cccc(Cl)c3)C(=O)[C@@]12C`, the cell number change is -4.85%. The AC50 under setting [1] is 0.146 µM [falling, full curve, poor fit].

As to `CCOc1ccc(N(CC(=O)Nc2ccccc2C)S(=O)(=O)c2c(C)noc2C)cc1`, under setting [1], the concentration at half-maximal activity (AC50) was 1.84 µM [rising, partial curve, poor fit].

As for `O=C(COc1cc2oc(=O)c3c(c2cc1Cl)CCCC3)NCC1CCC(C(=O)O)CC1` (stereo not given), the cell number change was -23.3%. In addition, the concentration at half-maximal activity (AC50) under setting [1] was 6.51 µM [rising, single point].

`O=C(COC(=O)Cc1ccsc1)NCC12CC3CC(CC(C3)C1)C2`: the cell number change is -121%. Besides, the concentration at half-maximal activity (AC50) under setting [2] is 29.1 µM [falling, single point]. In addition, the AC50 under setting [1] was 2.31 µM [rising, partial curve].

Regarding `CSCC[C@H](NC(=O)Cc1c(C)c2c(cc(C)c3c(C)c(C)oc32)oc1=O)C(=O)O`, the cell number change worked out at 27%. Further, the AC50 under setting [2] was 3.66 µM [rising, single point].

Turning to `COc1ccc(-c2c(-c3cc(OC)cc(OC)c3)n(C)c3ccc(-c4cccc5[nH]ccc45)cc23)cc1`, the cell number change was -3.3%. Moreover, under setting [1], the concentration at half-maximal activity (AC50) was 0.0116 µM [falling, full curve, poor fit].

`Cc1nc2nc(NC(=O)c3ccco3)[nH]n2c(=O)c1C`: the cell number change is -2.65%.

On to `NC(=O)CSc1nnc(-c2cnccn2)n1Cc1ccco1`, for which the cell number change was determined as 18.5%. Also, the AC50 under setting [1] is 6.51 µM [falling, single point].

Take `Cc1ccc(Cn2c(=N)c(C(=O)NCC3CCCO3)cc3c(=O)n4cccc(C)c4nc32)cc1` (stereo not given): the cell number change was -1.49%.

Take `Nc1ccc(C(=O)N/N=C2\CCCc3c2[nH]c2ccccc32)cc1`: the cell number change is -11.5%. Under setting [1], the AC50 is 0.731 µM [falling, full curve, poor fit].

Turning to `NS(=O)(=O)c1cc2c(cc1Cl)NC(C1CC3C=CC1C3)NS2(=O)=O` (stereo not given), under setting [1], the AC50 was 3.26 µM [falling, full curve].

As to `CCc1ccc(S(=O)(=O)Nc2c(NC3CCCCC3)c3ccccc3oc2=O)cc1`, the cell number change is -20.4%.

For the compound `CN(C(=O)CC1C(=O)NCCN1Cc1cccc(F)c1F)C1CCOCC1` (stereo not given), the cell number change was 26.1%. Further, under setting [1], the AC50 is 6.51 µM [rising, partial curve, poor fit].

`CCC(Oc1ccccc1)C(=O)Nc1ccccc1C(=O)N1CCOCC1` (stereo not given): the cell number change amounted to 1.05%. Moreover, the AC50 under setting [1] was 0.13 µM [rising, full curve, poor fit].

Take `CCCCOc1ccc(NC(=O)CN2CCN(Cc3ccccc3)CC2)cc1`: the cell number change was -3.31%.

On to `COc1ccc(F)cc1CN1CCN(C(=O)CCC(=O)Nc2nnc(CC(C)C)s2)CC1`, for which the cell number change is -16.1%. Also, the half-maximal activity concentration (AC50) under setting [1] was 0.58 µM [falling, single point].

Take `COc1ccc(-c2cc(C(=O)Nc3ccc(C)c(N)c3)c3ccccc3n2)cc1`: the cell number change came out at 0.338%. In addition, the concentration at half-maximal activity (AC50) under setting [2] was 0.58 µM [rising, full curve, poor fit]. Moreover, the AC50 under setting [1] was 2.31 µM [rising, partial curve].

As for `Cc1cc(=O)oc(C)c1C(=O)NCCN(C)Cc1ccccc1`, under setting [1], the concentration at half-maximal activity (AC50) was 6.51 µM [falling, single point].

Take `FC(F)Oc1ccc(NC(=S)NN2CCOCC2)cc1`: the cell number change worked out at 17.3%. Also, under setting [1], the concentration at half-maximal activity (AC50) is 29.1 µM [falling, single point].

Take `Cc1nc2c(cc1NC(=O)C(C)(C)C)nc(C)n2Cc1ccccc1`: the cell number change amounted to 21.1%.

On to `Cc1cc(C)c(C#N)c(N2CCN(CCOc3ccc(Cl)cc3)CC2)n1`, for which the cell number change was -13%. Also, under setting [1], the AC50 is 0.651 µM [rising, single point].

As to `c1ccc(-c2cc(-c3nnc4n3N=C(c3ccc5ccccc5c3)CS4)[nH]n2)cc1`, the cell number change is -139%. The concentration at half-maximal activity (AC50) under setting [2] is 29.1 µM [falling, single point]. Besides, under setting [1], the concentration at half-maximal activity (AC50) is 29.1 µM [falling, single point].

In the case of `Cc1ccc(C)c(-n2nnnc2SCC(=O)Nc2c(C)n(C)n(-c3ccccc3)c2=O)c1`, the AC50 under setting [2] was 3.26 µM [rising, partial curve].

As for `COc1ccc(/C=N/NC(=O)c2cc(-c3ccccc3OC(C)C)nc3ccccc23)cc1CN1CCOCC1`, the half-maximal activity concentration (AC50) under setting [1] was 0.00461 µM [rising, full curve, poor fit].

For `O=C(Nc1cccc(F)c1)C1CCN(C(=O)N2CCOc3ccccc32)CC1`, the cell number change amounted to 1.73%.

In the case of `O=C(CNS(=O)(=O)c1ccc2ccccc2c1)OCC(=O)c1ccc(Br)s1`, the cell number change stood at 33.8%.

Take `Cc1ccc(CNC(=O)C2CCC(=O)N(Cc3ccc(Cl)cc3)C2)cc1F` (stereo not given): the cell number change was -11.3%.

As for `CCCc1cc(=O)oc2cc(OCC(=O)Nc3ccccn3)ccc12`, the AC50 under setting [1] is 1.16 µM [falling, full curve].

A word on the AC50: it is the concentration giving half of the maximal activity seen.
